Assay results from patent publication US9345681B2, “Anti-obesity agent comprising high-purity EPA” (MOCHIDA PHARMACEUTICAL CO., LTD., priority 2011, dated 2016).

Tested on: obesity model hamster fed on a high fat diet
Assay: Effect of suppressing the body weight gain in the obesity model hamster fed on a high fat diet
Format: in vivo, Syrian hamsters
Details: for daily dietary intake (in terms of energy): between the high-fat diet group, the EPA group and the DHA group; for observation of the liver (fatty liver): high fat diet + 2% test substance
Description: 6 week old male Syrian hamsters (Japan SLC, Inc.) were bred at a temperature of 23±3° C. and a light-dark cycle of 12 hours on a free feeding of standard diet for 11 days, and the hamsters were divided into 4 groups, namely, standard forage group (Standard) (n=4), high-fat diet group (n=8), EPA group (HF+EPA-E) (n=8), and DHA group (HF+DHA-E) (n=7). The standard diet used was CLEA Rodent Diet CE-2 (4.8% fat) manufactured by CLEA Japan, Inc. and the high fat diet (HF) used was Hypercholesterolemic Hamster Diet (9% sugar and fat 21% fat) manufactured by Wilson. The effects of the EPA and DHA on the body weight gain were confirmed by using hamsters fed on a high fat diet (HF). During the feeding on the high fat diet, a mixed diet of high fat diet+2% EPA-E (comprising 98.24% EPA-E manufactured by Nippon Suisan Kaisha, Ltd.) was given to the EPA group, and a mixed diet of high fat diet+2% DHA-E (comprising 97.4% DHA-E manufactured by Equateq Ltd.) was given to the DHA group (with the diet changed once a day in the morning). The control group was given a high fat diet or a standard diet (comprising 4.8% fat) (with the diet changed once a day in the morning). The body weight was measured from the day of the start of the administration. The body weight gain rate on the 21st day was higher in the group fed on the high-fat diet group compared to the standard forage group, and the group fed on the high-fat diet was in the condition of obesity. […] This confirms that the action of suppressing the body weight gain (or reducing the body weight) of the EPA-E is realized by the action of suppressing (or reducing) the amount of fat, namely, the anti-obesity action.

| SMILES | daily dietary intake (in terms of energy) | observation of the liver (fatty liver) |
| --- | --- | --- |
| CC/C=C\C/C=C\C/C=C\C/C=C\C/C=C\CCCC(=O)OCC [EPA-E, ethyl icosapentate] | significant difference was not recognized | clear fatty liver was not found |
| CC/C=C\C/C=C\C/C=C\C/C=C\C/C=C\C/C=C\CCC(=O)OCC [DHA-E, ethyl docosahexaenoate] | significant difference was not recognized | clear fatty liver was not found |
